± gives the standard deviation of the averaged measurements. This is a selection; strong and weak results do not stand in their true shares. Most entries show no effect beyond the scatter of the controls.
Compound: Nc1ncnc2c1ncn2[C@@H]1O[C@H](COP(=O)(O)OP(=O)(O)NP(=O)(O)O)[C@@H](O)[C@H]1O [adenylyl imidodiphosphate]
Test: NP40-soluble protein abundance relative to vehicle (solubility fold change) (ratio); higher = more soluble protein in presence of AMP-PNP
In short: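 Each value is a fold change relative to the detergent-processed vehicle, calculated per replicate from vsn-normalised intensities. Jurkat crude lysate received eight concentrations (0.1 to 10 mM) for 10 min at room temperature and 3 min at 37 °C, then was solubilised in 0.8% NP40 with benzonase (60 min, 4 °C). The ultracentrifuged supernatant was TMT-labelled and run by LC-MS/MS in three independent experiments.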

Amino acid sequences for entries named in this document (tags omitted). A change or cut given only in a name is not applied to a line headed by its entry.
UniProt Q8NB49: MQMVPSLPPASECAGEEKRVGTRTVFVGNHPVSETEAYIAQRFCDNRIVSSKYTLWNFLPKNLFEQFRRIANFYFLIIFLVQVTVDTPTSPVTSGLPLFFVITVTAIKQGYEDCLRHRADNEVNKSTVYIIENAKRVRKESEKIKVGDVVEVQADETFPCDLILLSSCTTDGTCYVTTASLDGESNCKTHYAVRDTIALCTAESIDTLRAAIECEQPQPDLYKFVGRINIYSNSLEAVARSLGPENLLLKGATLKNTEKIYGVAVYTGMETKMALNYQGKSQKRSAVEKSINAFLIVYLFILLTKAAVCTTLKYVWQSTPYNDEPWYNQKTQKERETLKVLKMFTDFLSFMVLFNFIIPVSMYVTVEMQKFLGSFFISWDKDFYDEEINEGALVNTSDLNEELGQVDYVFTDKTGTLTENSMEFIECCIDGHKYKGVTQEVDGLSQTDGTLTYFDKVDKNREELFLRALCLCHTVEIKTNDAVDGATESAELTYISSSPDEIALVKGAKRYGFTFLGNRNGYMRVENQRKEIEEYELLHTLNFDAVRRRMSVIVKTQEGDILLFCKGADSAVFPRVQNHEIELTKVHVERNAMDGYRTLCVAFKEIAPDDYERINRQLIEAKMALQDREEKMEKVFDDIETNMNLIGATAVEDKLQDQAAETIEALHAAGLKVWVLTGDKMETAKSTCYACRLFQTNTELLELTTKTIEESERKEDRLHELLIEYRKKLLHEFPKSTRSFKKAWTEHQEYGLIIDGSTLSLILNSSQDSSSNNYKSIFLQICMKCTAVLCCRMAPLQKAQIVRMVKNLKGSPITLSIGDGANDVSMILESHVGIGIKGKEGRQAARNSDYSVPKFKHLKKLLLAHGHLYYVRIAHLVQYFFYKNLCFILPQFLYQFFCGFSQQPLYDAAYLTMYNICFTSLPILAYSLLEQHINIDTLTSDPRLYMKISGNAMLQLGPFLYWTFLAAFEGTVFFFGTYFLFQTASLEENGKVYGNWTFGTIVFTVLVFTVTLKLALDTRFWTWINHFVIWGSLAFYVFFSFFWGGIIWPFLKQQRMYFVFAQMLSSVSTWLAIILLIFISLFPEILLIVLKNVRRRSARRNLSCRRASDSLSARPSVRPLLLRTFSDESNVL
UniProt P46087: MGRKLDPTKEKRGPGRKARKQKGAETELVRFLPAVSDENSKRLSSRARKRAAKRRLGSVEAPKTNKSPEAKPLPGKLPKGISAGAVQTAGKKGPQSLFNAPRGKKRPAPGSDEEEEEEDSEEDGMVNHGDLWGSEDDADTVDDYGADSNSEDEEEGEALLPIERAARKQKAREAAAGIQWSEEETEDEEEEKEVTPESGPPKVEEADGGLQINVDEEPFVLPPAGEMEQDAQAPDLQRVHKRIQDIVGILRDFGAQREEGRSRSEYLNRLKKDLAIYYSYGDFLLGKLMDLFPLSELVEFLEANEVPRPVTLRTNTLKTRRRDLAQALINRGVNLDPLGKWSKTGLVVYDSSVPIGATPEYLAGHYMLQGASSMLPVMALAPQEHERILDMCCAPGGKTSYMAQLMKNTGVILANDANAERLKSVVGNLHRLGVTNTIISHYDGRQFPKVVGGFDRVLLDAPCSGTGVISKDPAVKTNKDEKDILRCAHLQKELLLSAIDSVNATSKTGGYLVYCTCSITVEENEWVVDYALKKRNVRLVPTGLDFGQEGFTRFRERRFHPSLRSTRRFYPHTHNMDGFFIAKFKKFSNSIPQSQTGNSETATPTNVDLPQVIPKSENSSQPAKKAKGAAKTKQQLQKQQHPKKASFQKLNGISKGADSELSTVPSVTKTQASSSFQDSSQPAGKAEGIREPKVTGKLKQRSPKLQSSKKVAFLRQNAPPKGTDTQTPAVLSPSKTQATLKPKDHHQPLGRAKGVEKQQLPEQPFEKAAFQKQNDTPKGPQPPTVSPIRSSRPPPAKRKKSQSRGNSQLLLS
UniProt Q9NRW7: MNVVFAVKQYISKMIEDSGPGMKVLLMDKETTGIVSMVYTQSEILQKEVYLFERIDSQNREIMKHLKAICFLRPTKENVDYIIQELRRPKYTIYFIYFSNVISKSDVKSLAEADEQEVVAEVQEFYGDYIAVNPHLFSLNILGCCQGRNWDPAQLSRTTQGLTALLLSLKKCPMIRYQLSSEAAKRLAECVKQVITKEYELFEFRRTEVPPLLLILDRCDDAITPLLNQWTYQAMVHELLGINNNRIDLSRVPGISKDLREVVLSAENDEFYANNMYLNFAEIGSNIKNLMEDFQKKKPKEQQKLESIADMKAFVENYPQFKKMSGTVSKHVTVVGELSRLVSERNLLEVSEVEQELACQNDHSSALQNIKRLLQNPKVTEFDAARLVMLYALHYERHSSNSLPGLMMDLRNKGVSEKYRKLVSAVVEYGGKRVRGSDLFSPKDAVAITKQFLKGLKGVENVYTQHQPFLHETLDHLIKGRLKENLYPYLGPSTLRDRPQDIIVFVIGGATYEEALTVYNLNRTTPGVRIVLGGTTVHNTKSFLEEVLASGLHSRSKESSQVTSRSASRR
UniProt Q14241: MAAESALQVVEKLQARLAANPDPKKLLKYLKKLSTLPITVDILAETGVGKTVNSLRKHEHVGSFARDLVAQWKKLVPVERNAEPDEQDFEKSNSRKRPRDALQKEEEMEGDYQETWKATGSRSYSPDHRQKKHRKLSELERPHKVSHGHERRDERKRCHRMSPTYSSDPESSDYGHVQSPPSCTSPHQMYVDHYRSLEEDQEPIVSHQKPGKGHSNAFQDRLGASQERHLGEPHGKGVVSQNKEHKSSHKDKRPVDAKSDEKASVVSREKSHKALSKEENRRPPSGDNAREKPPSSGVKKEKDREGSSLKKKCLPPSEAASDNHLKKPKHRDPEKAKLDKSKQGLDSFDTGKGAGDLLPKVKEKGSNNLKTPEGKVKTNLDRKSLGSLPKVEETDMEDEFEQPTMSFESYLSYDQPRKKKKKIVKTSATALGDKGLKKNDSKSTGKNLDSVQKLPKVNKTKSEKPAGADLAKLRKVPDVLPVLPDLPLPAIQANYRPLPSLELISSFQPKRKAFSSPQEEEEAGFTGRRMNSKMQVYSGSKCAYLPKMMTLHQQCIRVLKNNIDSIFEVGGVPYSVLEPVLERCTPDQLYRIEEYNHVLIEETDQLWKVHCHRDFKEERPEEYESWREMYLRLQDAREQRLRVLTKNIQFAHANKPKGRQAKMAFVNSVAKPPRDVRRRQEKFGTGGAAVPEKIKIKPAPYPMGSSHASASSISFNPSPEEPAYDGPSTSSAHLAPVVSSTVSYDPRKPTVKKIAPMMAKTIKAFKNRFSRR
UniProt Q96A57: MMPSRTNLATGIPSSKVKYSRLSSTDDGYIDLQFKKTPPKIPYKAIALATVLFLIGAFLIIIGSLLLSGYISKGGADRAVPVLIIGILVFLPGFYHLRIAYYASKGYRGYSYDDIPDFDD
UniProt Q99417: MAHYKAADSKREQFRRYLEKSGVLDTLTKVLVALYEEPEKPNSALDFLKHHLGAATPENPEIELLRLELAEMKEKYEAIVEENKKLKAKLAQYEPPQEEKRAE
UniProt P35227: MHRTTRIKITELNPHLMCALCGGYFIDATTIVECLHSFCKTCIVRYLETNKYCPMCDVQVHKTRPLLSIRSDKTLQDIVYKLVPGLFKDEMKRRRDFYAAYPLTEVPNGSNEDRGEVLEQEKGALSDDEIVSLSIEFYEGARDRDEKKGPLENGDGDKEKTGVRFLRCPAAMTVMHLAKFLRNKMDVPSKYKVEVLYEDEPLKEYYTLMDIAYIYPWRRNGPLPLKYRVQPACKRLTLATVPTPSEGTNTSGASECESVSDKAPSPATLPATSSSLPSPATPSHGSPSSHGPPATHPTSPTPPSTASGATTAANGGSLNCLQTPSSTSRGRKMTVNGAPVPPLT
UniProt Q9Y5U8: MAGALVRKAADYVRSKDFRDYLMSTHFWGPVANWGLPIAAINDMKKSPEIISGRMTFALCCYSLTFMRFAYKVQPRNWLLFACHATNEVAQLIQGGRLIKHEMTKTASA
UniProt Q9BXJ8: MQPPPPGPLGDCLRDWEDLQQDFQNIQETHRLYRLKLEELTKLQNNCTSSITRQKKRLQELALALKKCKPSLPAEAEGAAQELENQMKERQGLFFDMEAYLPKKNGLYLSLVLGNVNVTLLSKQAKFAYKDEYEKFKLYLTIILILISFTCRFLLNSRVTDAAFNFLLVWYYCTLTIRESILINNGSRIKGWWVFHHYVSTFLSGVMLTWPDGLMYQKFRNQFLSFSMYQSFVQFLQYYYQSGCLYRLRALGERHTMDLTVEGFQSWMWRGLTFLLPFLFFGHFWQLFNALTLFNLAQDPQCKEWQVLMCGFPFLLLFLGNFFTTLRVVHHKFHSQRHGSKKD
UniProt P49720: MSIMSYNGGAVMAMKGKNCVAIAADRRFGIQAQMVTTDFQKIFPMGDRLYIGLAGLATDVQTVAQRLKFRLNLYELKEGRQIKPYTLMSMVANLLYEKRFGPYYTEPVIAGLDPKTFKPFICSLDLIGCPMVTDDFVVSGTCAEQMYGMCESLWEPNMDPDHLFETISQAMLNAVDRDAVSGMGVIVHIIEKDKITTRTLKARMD
UniProt Q9H0U3: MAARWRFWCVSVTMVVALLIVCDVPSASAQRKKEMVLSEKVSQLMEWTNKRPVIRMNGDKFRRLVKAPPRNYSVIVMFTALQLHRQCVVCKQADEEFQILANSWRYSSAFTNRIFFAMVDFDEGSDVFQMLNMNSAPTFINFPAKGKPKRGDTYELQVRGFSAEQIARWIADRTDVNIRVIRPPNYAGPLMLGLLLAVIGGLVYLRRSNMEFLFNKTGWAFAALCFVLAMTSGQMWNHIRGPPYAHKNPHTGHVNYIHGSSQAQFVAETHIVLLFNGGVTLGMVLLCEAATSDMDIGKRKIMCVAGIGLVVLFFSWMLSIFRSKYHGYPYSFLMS
UniProt Q9NZM3: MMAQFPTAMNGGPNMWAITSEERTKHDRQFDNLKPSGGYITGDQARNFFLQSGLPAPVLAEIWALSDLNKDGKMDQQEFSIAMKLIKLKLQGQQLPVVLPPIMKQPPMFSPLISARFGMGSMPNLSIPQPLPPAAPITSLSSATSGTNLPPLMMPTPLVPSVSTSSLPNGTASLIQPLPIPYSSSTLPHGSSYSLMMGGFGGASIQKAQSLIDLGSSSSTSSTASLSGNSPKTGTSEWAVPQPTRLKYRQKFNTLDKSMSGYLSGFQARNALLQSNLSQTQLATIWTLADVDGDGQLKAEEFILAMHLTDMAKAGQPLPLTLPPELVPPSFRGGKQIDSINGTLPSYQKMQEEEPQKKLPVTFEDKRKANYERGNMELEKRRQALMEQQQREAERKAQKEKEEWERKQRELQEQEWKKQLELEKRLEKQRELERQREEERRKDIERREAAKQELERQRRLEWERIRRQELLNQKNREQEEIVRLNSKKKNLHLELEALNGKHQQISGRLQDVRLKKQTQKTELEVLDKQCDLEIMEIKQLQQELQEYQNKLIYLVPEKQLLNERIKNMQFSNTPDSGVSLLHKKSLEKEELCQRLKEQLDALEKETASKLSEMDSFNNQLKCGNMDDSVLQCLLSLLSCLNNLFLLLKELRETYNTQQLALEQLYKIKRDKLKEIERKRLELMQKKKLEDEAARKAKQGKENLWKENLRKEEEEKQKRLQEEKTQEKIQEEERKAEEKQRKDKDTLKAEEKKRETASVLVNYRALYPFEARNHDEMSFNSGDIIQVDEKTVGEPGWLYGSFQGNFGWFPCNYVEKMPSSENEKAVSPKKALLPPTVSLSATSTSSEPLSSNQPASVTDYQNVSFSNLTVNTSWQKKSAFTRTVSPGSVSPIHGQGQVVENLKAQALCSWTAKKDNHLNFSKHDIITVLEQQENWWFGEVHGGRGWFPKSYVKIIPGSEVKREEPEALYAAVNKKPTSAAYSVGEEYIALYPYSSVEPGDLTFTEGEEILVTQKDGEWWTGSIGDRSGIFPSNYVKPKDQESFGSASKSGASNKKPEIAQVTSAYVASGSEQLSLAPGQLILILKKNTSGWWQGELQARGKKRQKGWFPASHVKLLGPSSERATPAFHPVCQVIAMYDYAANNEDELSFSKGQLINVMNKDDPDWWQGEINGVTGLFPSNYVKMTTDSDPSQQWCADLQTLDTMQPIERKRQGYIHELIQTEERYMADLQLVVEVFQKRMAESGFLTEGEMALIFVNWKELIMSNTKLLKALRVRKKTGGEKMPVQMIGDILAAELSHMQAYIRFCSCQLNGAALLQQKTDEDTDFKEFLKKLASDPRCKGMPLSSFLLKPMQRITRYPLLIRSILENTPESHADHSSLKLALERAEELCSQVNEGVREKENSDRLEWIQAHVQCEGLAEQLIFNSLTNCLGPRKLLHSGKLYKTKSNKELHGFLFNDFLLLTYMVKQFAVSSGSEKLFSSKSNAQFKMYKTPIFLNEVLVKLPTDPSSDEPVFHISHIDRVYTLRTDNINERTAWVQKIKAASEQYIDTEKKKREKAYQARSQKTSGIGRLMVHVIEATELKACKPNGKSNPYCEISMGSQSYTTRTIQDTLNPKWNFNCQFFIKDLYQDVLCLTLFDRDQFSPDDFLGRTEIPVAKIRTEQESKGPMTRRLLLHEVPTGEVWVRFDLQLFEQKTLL

Target	NP40-soluble protein abundance (concentration: 0.1mM)	NP40-soluble protein abundance (concentration: 0.5mM)
A0A024R7E8|K7EMV4 and related entries (UniProt P60002)	1.01 ± 0.044	1.06 ± 0.074
A0A087WW40|Q9Y371 and related entries (UniProt Q9Y371)	1 ± 0.022	1.02 ± 0.029
A0A087WTJ2|Q8WWP7 (UniProt Q8WWP7)	1.05 ± 0.012	1.01 ± 0.014
A0A087WVU5|O00512 (UniProt O00512)	0.986 ± 0.011	0.983 ± 0.035
A0A067XG54|Q8NB49 and related entries (UniProt Q8NB49)	0.996 ± 0.054	0.972 ± 0.047
A0A024R4Q5|G5E9B5 and related entries (UniProt P0C1Z6)	1.01 ± 0.04	0.981 ± 0.065
A0A087WTX2|Q92504 (UniProt Q92504)	0.9886 ± 0.0052	0.992 ± 0.018
A0A024R4E5|Q00341 (UniProt Q00341)	0.984 ± 0.019	0.97 ± 0.011
A0A087WV23|Q5T123 and related entries (UniProt Q9H299)	0.987 ± 0.046	1.04 ± 0.072
A0A087WUS0|E7ETK0 and related entries (UniProt P62847)	1.04 ± 0.058	1.02 ± 0.057
A0A087WVQ6|Q00610 and related entries (UniProt Q00610)	1.01 ± 0.03	0.976 ± 0.076
A0A075B6T4|Q9NVX7 and related entries (UniProt Q9NVX7)	1.2 ± 0.086	0.981 ± 0.073
A0A087WV73|P46087 and related entries (UniProt P46087)	1 ± 0.013	1.04 ± 0.05
A0A087WVS8|Q70IA6 and related entries (UniProt Q70IA6)	0.976 ± 0.02	0.969 ± 0.055
A0A087WU64|A6NMQ1 and related entries (UniProt P09884)	0.962 ± 0.02	0.971 ± 0.019
A0A087WUH0|P28715 (UniProt P28715)	0.988 ± 0.027	1.03 ± 0.018
A0A024R644|O75503 (UniProt O75503)	0.976 ± 0.049	1.036 ± 0.0081
A0A075B738|P16284 and related entries (UniProt P16284)	0.981 ± 0.015	0.98 ± 0.031
A0A087WUU9|P47974 (UniProt P47974)	1.007 ± 0.0073	0.998 ± 0.03
A0A087WUB9|Q8WYA6 (UniProt Q8WYA6)	1.02 ± 0.028	1.02 ± 0.032
A0A087WW06|Q96AY4 (UniProt Q96AY4)	1.01 ± 0.0045	0.99 ± 0.026
A0A087WU65|Q9NRW7 (UniProt Q9NRW7)	1.019 ± 0.0019	0.974 ± 0.062
A0A024RAC6 (UniProt Q14241)	0.979 ± 0.021	1.02 ± 0.051
A0A087WT30|Q8N5I9 (UniProt Q8N5I9)	1.05 ± 0.033	1.19 ± 0.065
A0A075B716|H0YN88 and related entries (UniProt P08708)	1.06 ± 0.035	1.03 ± 0.045

Target	NP40-soluble protein abundance (concentration: 0.1mM)	NP40-soluble protein abundance (concentration: 0.5mM)
A0A087WUP3|F8WBY6 and related entries (UniProt Q8N3Z3)	1.002 ± 0.008	0.981 ± 0.019
A0A087WTT2|Q5JWB9 and related entries (UniProt Q96A57)	0.989 ± 0.03	1.04 ± 0.024
A0A087WVN1|Q5JPI9 (UniProt Q5JPI9)	1.006 ± 0.0084	0.9952 ± 0.0068
A0A087WUK2|O14979 and related entries (UniProt O14979)	0.994 ± 0.056	1.05 ± 0.09
A0A075B6T1|Q9C0C7 and related entries (UniProt Q9C0C7)	0.979 ± 0.012	0.989 ± 0.02
A0A087WUX8|A0A087WYF7|Q6UXV4 (UniProt Q6UXV4)	1.02 ± 0.056	1.04 ± 0.036
A0A087WUL0|Q3LXA3 (UniProt Q3LXA3)	0.997 ± 0.027	0.993 ± 0.022
A0A087WV05|Q99417 (UniProt Q99417)	0.9979 ± 0.0074	0.972 ± 0.063
A0A087WUW9|Q9NXU5 (UniProt Q9NXU5)	0.973 ± 0.018	1.01 ± 0.047
A0A087WTW5|Q9UKL3 (UniProt Q9UKL3)	1.02 ± 0.035	1.01 ± 0.02
A0A087WUT6|O60841 (UniProt O60841)	0.999 ± 0.036	1.01 ± 0.019
A0A075B6H4|Q9H8E8 (UniProt Q9H8E8)	1.02 ± 0.075	1.05 ± 0.03
A0A087WTM5|H7BYJ1 and related entries (UniProt Q969K3)	0.974 ± 0.03	0.942 ± 0.05
A0A024QZP7|P06493 (UniProt P06493)	1.02 ± 0.017	1.03 ± 0.017
A0A087WVA8|Q8IWB9 and related entries (UniProt Q8IWB9)	1.02 ± 0.041	0.988 ± 0.048
A0A087WT12|A0A087X2I2|K7ERP4 and related entries (UniProt P36969)	1.004 ± 0.0085	0.998 ± 0.055
A0A087WTU3|Q9Y6I9 (UniProt Q9Y6I9)	0.9941 ± 0.0095	0.995 ± 0.027
A0A075B6F9|Q9Y314 (UniProt Q9Y314)	0.983 ± 0.037	1.01 ± 0.02
A0A024R1V6|P35227 (UniProt P35227)	1.01 ± 0.018	1.03 ± 0.033
A0A087WV86|B5LMG6 and related entries (UniProt Q6PGQ7+B5LMG6)	1.01 ± 0.026	1 ± 0.029
A0A087WUC6|E9PI68 and related entries (UniProt Q15005)	1.01 ± 0.019	1 ± 0.013
A0A075B746|P82921 (UniProt P82921)	1.001 ± 0.0087	1.02 ± 0.023
A0A087WUZ9|Q16760 and related entries (UniProt Q16760)	0.979 ± 0.053	0.971 ± 0.02
A0A087WW14|Q0VDG4 and related entries (UniProt Q0VDG4)	1 ± 0.021	0.974 ± 0.03
A0A087WVZ0|Q9Y5U8 (UniProt Q9Y5U8)	1.019 ± 0.0083	1 ± 0.013

Target	NP40-soluble protein abundance (concentration: 0.1mM)	NP40-soluble protein abundance (concentration: 0.5mM)
A0A087WU62|A0A087X2D5|A0A0G2JMS5|Q9BRJ2 (UniProt Q9BRJ2)	1.02 ± 0.023	0.988 ± 0.082
A0A087WU02|F8VPA6 and related entries (UniProt Q96RQ1)	0.999 ± 0.053	1.01 ± 0.054
A0A087WT20|Q9NV06 (UniProt Q9NV06)	1.044 ± 0.006	0.9452 ± 0.0036
A0A087WUD1|Q6DD87 (UniProt Q6DD87)	1.001 ± 0.0051	1 ± 0.039
A0A024R4N9|Q9BSV6 and related entries (UniProt Q9BSV6)	0.982 ± 0.022	0.986 ± 0.047
A0A087WVP1|Q14517 (UniProt Q14517)	1.01 ± 0.052	1.01 ± 0.073
A0A087WUQ6|P07203 (UniProt P07203)	1.005 ± 0.0051	0.979 ± 0.055
A0A087WUM0 (UniProt P57105)	0.965 ± 0.026	0.99 ± 0.041
A0A087WTU9|A0A087WZY3|Q8TCU4 and related entries (UniProt Q8TCU4)	1.02 ± 0.049	1 ± 0.079
A0A024RCR6|A0A0G2JK23|P46379 and related entries (UniProt P46379)	0.984 ± 0.043	0.966 ± 0.049
A0A087WUW5|A0A0U1RRM4|A6NLN1 and related entries (UniProt P26599)	1.01 ± 0.012	1.02 ± 0.028
A0A024R216|Q9Y3E1 (UniProt Q9Y3E1)	0.935 ± 0.044	0.995 ± 0.038
A0A075B6F3|H0Y7V4 and related entries (UniProt Q96JB1)	0.926 ± 0.074	0.956 ± 0.04
A0A087WUA5|Q9H223 (UniProt Q9H223)	1.02 ± 0.025	0.9997 ± 0.0082
A0A024RA52|P25787 (UniProt P25787)	0.98 ± 0.01	1.01 ± 0.023
A0A024R4M0|P46781 (UniProt P46781)	1.1 ± 0.067	1.04 ± 0.13
A0A024R4K9|A0A087WZA9|A0A087X266|Q9BXJ8 and related entries (UniProt Q9BXJ8)	0.952 ± 0.0082	1.014 ± 0.0026
A0A087WUL2|P49720 (UniProt P49720)	1.04 ± 0.022	1.03 ± 0.11
A0A087WUI1|Q9Y388 (UniProt Q9Y388)	1.05 ± 0.033	1.05 ± 0.028
A0A087WTW0|A0A087WVR3|Q96T88 and related entries (UniProt Q96T88)	1 ± 0.027	1.01 ± 0.033
A0A087WUU7|Q96GX5 and related entries (UniProt Q96GX5)	0.9886 ± 0.0034	0.998 ± 0.039
A0A087WU53|Q9H0U3 (UniProt Q9H0U3)	1.02 ± 0.054	0.987 ± 0.061
A0A087WVF7|Q9NZM3 and related entries (UniProt Q9NZM3)	0.9725 ± 0.007	1.01 ± 0.056
A0A087WT44|P30519 and related entries (UniProt P30519)	1 ± 0.019	0.993 ± 0.024

Exported comma-delimited: entries from further up.
Target,NP40-soluble protein abundance (concentration: 0.1mM),NP40-soluble protein abundance (concentration: 0.5mM)
A0A087WV73|P46087 and related entries (UniProt P46087),1 ± 0.013,1.04 ± 0.05
A0A024R4K9|A0A087WZA9|A0A087X266|Q9BXJ8 and related entries (UniProt Q9BXJ8),0.952 ± 0.0082,1.014 ± 0.0026

Reference: the supplement of paper PMC6411743
